{"source": "PubChem BioAssay AID504444", "about": "(National Center for Advancing Translational Sciences (NCATS), 2011)", "note": "Values joined by “and” are separate entries in the source; they are usually repeats but may differ in a detail not shown here. Equal values may be shown once. Screen size: about 360,000 compounds; about 7,500 (2.1%) were called active. This list was built around the results that the source calls inconclusive (neither active nor inactive); the mix of calls is not that of the screen. Calls come from the whole dose curve; as a rule, active = well fitted inhibition curve with a large enough effect; inconclusive = small, poorly fitted or top-dose-only effect, or effect the other way; inactive = flat fitted curve, though single readings scatter. Where the call is inconclusive, the potency comes from a doubtful curve fit. A structure can be active in one record and inactive in another. % is set by controls: 0 for no effect and ±100 for the full control effect; potency is the fitted concentration of half-maximal effect.", "data": [{"assay": "Nrf2 qHTS screen for inhibitors; note: nearly all actives have a fitted effect of over 60% in size", "settings": "A549 ARE-Fluc reporter, luciferase luminescence, 18-24 h; activity change, negative = inhibition: at 46 µM (top of the series)", "how_it_was_run": "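A549 ARE_Fluc cells (5000/well, 5% FBS OPTI-MEM) pre-incubated 2 h, then treated with compounds 18-24 h at 37C/5% CO2 in concentration-response. CellTiter-Fluor viability read first; BugLite luciferase luminescence after 15 min at room temperature gives Nrf2 activity.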", "values": [{"smiles": "Cc1ccc(NC(=O)c2cnn3c2NC(c2ccccc2)=CC3c2ccccc2)cc1", "note": "(stereo unspecified)", "Potency": "inconclusive: 16.4 µM [falling, single point]"}, {"smiles": "CCC(Sc1nnc(C)n2c1cc1occc12)C(=O)Nc1ccccc1OC", "note": "(stereo unspecified)", "Potency": "inconclusive: 29.1 µM [falling, single point]"}, {"smiles": "O=C(N/N=C\\c1cccc([N+](=O)[O-])c1O)C1COc2ccccc2O1", "note": "(stereo unspecified)", "Potency": "inconclusive: 9.2 µM [falling, partial curve, poor fit]"}, {"smiles": "O=C(Nc1ccc(N2CCOCC2)cc1)NC1CCCCC1", "Potency": "inconclusive: 23.1 µM [activator, single point]"}, {"smiles": "CC(=O)c1ccc(NC(=O)Cn2nc(N3CCN(c4ccccc4)CC3)ccc2=O)cc1", "Potency": "inconclusive: 32.6 µM [falling, single point]"}, {"smiles": "Cc1ccc(C(C)C)c(OCC(O)CN2CCc3ccccc3C2)c1", "note": "(stereo unspecified)", "Potency": "inconclusive: 29.1 µM [falling, single point]"}, {"smiles": "CN(C)c1ccc(NC(=O)CSc2nc3c(c(=O)[nH]2)CCCC3)cc1", "Potency": "inconclusive: 16.4 µM [falling, partial curve]"}, {"smiles": "Cc1cccc(COc2ncnc3nc[nH]c23)c1", "activity change, negative = inhibition": "inactive: 10.7%"}, {"smiles": "O=S(=O)(c1cc(F)ccc1F)N1CCN(C2CCCCC2)CC1", "activity change, negative = inhibition": "inactive: -0.734%"}, {"smiles": "O=c1c2ccccc2ncn1-c1ccc(Cl)cc1", "Potency": "inconclusive: 20.6 µM [activator, single point]"}, {"smiles": "O=[N+]([O-])c1ccccc1OCCOc1ccccc1[N+](=O)[O-]", "Potency": "inconclusive: 25.9 µM [activator, single point]"}, {"smiles": "COc1cccc(CC2(CO)CCCN(Cc3cc4ccccc4[nH]3)C2)c1", "note": "(stereo unspecified)", "Potency": "inconclusive: 25.9 µM [activator, partial curve, poor fit]"}, {"smiles": "O=C(c1cccc(Oc2ccc([N+](=O)[O-])cc2Cl)c1)N1CCCCC1", "activity change, negative = inhibition": "inactive: -7.35%"}, {"smiles": "Cc1ccc(NC(=O)Cc2coc3ccc(C(C)C)cc23)cc1Cl", "Potency": "inconclusive: 20.6 µM [falling, single point]"}, {"smiles": "CCCCCC(C)NC(=O)c1ccoc1C", "note": "(stereo unspecified)", "Potency": "inconclusive: 14.6 µM [activator, partial curve, poor fit]"}, {"smiles": "COc1ccc(-n2c(=O)[nH]c3cc(C(=O)NCCc4ccccc4)ccc3c2=O)cc1OC", "Potency": "active: 13 µM"}, {"smiles": "O=C(COc1ccccc1)Nc1ccc2nc(SCC(=O)N3CCOCC3)sc2c1", "Potency": "inconclusive: 29.1 µM [falling, single point]"}, {"smiles": "CCNc1c(NS(=O)(=O)c2ccc([N+](=O)[O-])cc2)c(=O)oc2ccccc12", "Potency": "inconclusive: 18.4 µM [falling, single point]"}, {"smiles": "O=C(NCc1ccccc1)Nc1cccn(Cc2ccccc2Cl)c1=O", "Potency": "inconclusive: 29.1 µM [falling, single point]"}, {"smiles": "COc1cc2ccccc2cc1-c1nnc(COc2ccccc2)o1", "activity change, negative = inhibition": "inactive: 6.64%"}, {"smiles": "O=C1CCCC2=C1C1(CCS(=O)(=O)C1)N=C(Nc1nc3ccccc3o1)N2", "note": "(stereo unspecified)", "Potency": "inconclusive: 25.9 µM [activator, partial curve, poor fit]"}, {"smiles": "Cc1cc(C)c(NC(=O)COC(=O)C2CCC2)c(Cl)c1", "Potency": "inconclusive: 3.66 µM [activator, partial curve, poor fit]"}, {"smiles": "CCN1C(=O)/C(=C\\c2cn(CCC#N)nc2-c2ccc(F)cc2)SC1=S", "activity change, negative = inhibition": "inactive: -10.4%"}, {"smiles": "CC(C)c1ccc(S(=O)(=O)Nc2ccc(O)c(Sc3ncn[nH]3)c2)cc1", "Potency": "inconclusive: 16.4 µM [falling, partial curve, poor fit]"}, {"smiles": "CC(Oc1ccc2c(-c3ccccc3)cc(=O)oc2c1)C(=O)NCCCn1ccnc1", "note": "(stereo unspecified)", "Potency": "inconclusive: 29.1 µM [falling, single point]"}, {"smiles": "C[C@@]12CCC=C[C@H]1[C@H](c1ccccc1Br)N(Cc1ccccc1)C2=O", "Potency": "inconclusive: 16.4 µM [falling, partial curve, poor fit]"}, {"smiles": "c1ccc2c(c1)OCC(c1csc3ncnc(N4CCCCC4)c13)O2", "note": "(stereo unspecified)", "Potency": "inconclusive: 20.6 µM [falling, single point]"}, {"smiles": "Cc1c(CCC(=O)NCCCn2ccnc2)c(=O)oc2cc3oc4c(c3cc12)CCCC4", "Potency": "inconclusive: 20.6 µM [falling, partial curve]"}, {"smiles": "Nc1nc(=S)[nH]c2c1C1(CCCC1)Cc1ccccc1-2", "Potency": "inconclusive: 16.4 µM [falling, single point]"}, {"smiles": "CCCOc1ccc(-c2nc(C#N)c(N3CCN(C)CC3)o2)cc1", "activity change, negative = inhibition": "inactive: -6.97%"}, {"smiles": "CN1C(C(=O)Nc2ccc(OC(F)(F)F)cc2)=CC(c2cccs2)=NS1(=O)=O", "Potency": "inactive and active: 3.66 µM"}, {"smiles": "Cc1ccc(CN(C(=O)Cn2nnc3ccccc32)C(C(=O)NCc2ccco2)c2ccc(C)o2)cc1", "note": "(stereo unspecified)", "Potency": "inconclusive: 29.1 µM [falling, single point]"}, {"smiles": "Cc1cc2n(n1)C(c1cccs1)Nc1ccccc1-2", "note": "(stereo unspecified)", "activity change, negative = inhibition": "inactive: 11.1%"}, {"smiles": "O=C(COc1ccc(-n2cnnn2)cc1)Nc1cc(Cl)cc(Cl)c1", "Potency": "inconclusive: 29.1 µM [falling, single point]"}, {"smiles": "CN(CC(=O)NCCC1=CCCCC1)S(=O)(=O)c1ccc2c(c1)CCC(=O)N2", "Potency": "inconclusive: 4.11 µM [falling, full curve, poor fit]"}, {"smiles": "O=C(NCc1ccco1)c1ccc2ccccc2n1", "Potency": "inconclusive: 29.1 µM [activator, single point]"}, {"smiles": "Cc1ccc(C(=O)Nc2cccc(S(=O)(=O)N(C)c3ccccc3)c2)o1", "activity change, negative = inhibition": "inactive: -5.53%"}, {"smiles": "Cn1c(N)c(C(=O)CSc2nc3ccccc3c(=O)n2Cc2ccccc2)c(=O)n(C)c1=O", "Potency": "inconclusive: 4.11 µM [falling, full curve]"}, {"smiles": "Cc1csc(NC(=O)c2sc3nc(-c4cccs4)ccc3c2N)n1", "Potency": "inconclusive: 0.411 µM [activator, partial curve, poor fit]"}, {"smiles": "CCn1cc(Br)c(C(=O)Nc2cccc(Cl)c2)n1", "Potency": "inconclusive: 2.31 µM [activator, full curve, poor fit]"}, {"smiles": "Cc1cccc(CCN2C(Nc3ccccc3)=NC[C@@H]2CC(C)C)c1", "activity change, negative = inhibition": "inactive: 8.68%"}, {"smiles": "CC(C)(C)NC(=O)Cc1ccc(Cl)c(Cl)c1", "Potency": "inconclusive: 8.2 µM [activator, partial curve, poor fit]"}, {"smiles": "CCC(=O)Nc1ccc(S(=O)(=O)N2CCC(c3nc4ccccc4[nH]3)CC2)cc1", "Potency": "inconclusive: 18.4 µM [falling, partial curve, poor fit]"}, {"smiles": "CCn1cc(C(=O)NCc2ccc(Cl)cc2)c(=O)c2cc(S(=O)(=O)N(C)C3CCCCC3)ccc21", "Potency": "inconclusive: 25.9 µM [falling, single point]"}, {"smiles": "CCc1ccc(S(=O)(=O)Nc2ccc(-c3nc4cccnc4s3)cc2)s1", "Potency": "inconclusive: 14.6 µM [activator, partial curve]"}, {"smiles": "CS(=O)(=O)CCSc1ncccc1C(=O)NCc1cccs1", "Potency": "inconclusive: 18.4 µM [falling, partial curve, poor fit]"}, {"smiles": "COc1cccc(C(=O)Nc2nnc(-c3ccc(OC)cc3OC)s2)c1", "Potency": "inconclusive: 29.1 µM [falling, single point]"}, {"smiles": "Nc1c(C=C2C=CC(=O)C=C2)c(=O)nc2snc(SCc3ccccc3)n12", "Potency": "inconclusive: 23.1 µM [activator, single point]"}, {"smiles": "CCN(c1ccccc1)S(=O)(=O)c1ccc(C(=O)Nc2nnc(C3CC3)o2)cc1", "Potency": "active: 11.6 µM"}, {"smiles": "COc1cc(OC)c(C2CC(=O)N3CN(c4ccccc4)CSC3=C2C#N)cc1OC", "note": "(stereo unspecified)", "activity change, negative = inhibition": "inactive: 13.4%"}, {"smiles": "CC(=O)c1ccc(NC(=O)Nc2cccc(Cl)c2)cc1", "Potency": "inconclusive: 2.31 µM [activator, full curve]"}, {"smiles": "COc1ccc(OC)c(NC(=O)CN(Cc2ccc(F)cc2)C2CCCCC2)c1", "Potency": "inconclusive: 25.9 µM [falling, single point]"}, {"smiles": "Cn1c(CN2CCN(c3ccc(Cl)cc3)CC2)nc2ccccc21", "Potency": "inconclusive: 18.4 µM [falling, single point]"}, {"smiles": "O=C(CSc1nnc(-c2ccc(F)cc2)o1)N1CCCc2ccccc21", "Potency": "inconclusive: 0.92 µM [falling, full curve, poor fit]"}, {"smiles": "COCCOc1ccc(C(F)(F)F)cc1NC(=O)c1ccccc1F", "activity change, negative = inhibition": "inactive: 13.9%"}, {"smiles": "COc1ccccc1NS(=O)(=O)c1ccc(N/N=C/c2c(C)nn(-c3ccccc3)c2N2CCCC2)c([N+](=O)[O-])c1", "Potency": "inconclusive: 11.6 µM [falling, partial curve, poor fit]"}, {"smiles": "Cc1c(Cl)cccc1NC(=O)C(=O)NNS(=O)(=O)c1ccc(F)cc1", "Potency": "inconclusive: 14.6 µM [falling, partial curve, poor fit]"}, {"smiles": "Cc1ncc(CO)c(/C=N/NC(=O)c2cc3c(s2)CCCC3)c1O", "Potency": "active: 23.1 µM"}, {"smiles": "CCCOc1nc(SCCC)nc2c1cnn2-c1ccccc1", "Potency": "inconclusive: 4.61 µM [activator, partial curve, poor fit]"}, {"smiles": "O=C(Nc1ccc2c(c1)OCO2)OCc1ccccc1", "Potency": "inconclusive: 1.64 µM [activator, full curve]"}, {"smiles": "COC(=O)c1sccc1S(=O)(=O)N(CC(=O)NCc1ccc(C)cc1)c1ccc(C)cc1", "Potency": "inconclusive: 4.11 µM [falling, single point]"}, {"smiles": "CC(C)(C)C1CCc2sc(-c3nnc(CCl)o3)cc2C1", "note": "(stereo unspecified)", "activity change, negative = inhibition": "inactive: 10.5%"}, {"smiles": "Fc1ccc(-c2nc(Nc3cccc(C(F)(F)F)c3)nc3c2COc2ccccc2-3)cc1", "Potency": "inconclusive: 29.1 µM [falling, single point]"}, {"smiles": "Cc1cccc(Cc2c(C)nc3c(-c4ccccc4)c(C)[nH]n3c2=O)c1", "Potency": "active: 5.8 µM"}, {"smiles": "COc1ccc(CN(CC2CCCO2)C(=O)c2cc3sccc3n2C)c(OC)c1", "note": "(stereo unspecified)", "Potency": "inconclusive: 11.6 µM [falling, partial curve, poor fit]"}, {"smiles": "C(=C\\c1ccc2ccccc2n1)/c1ccccc1", "Potency": "inconclusive: 1.03 µM [activator, full curve, poor fit]"}]}]}
